Broadly, the pIC50 is the IC50 on a negative log10 scale, so that one unit is a factor of ten.

The source of these data is ChEMBL document CHEMBL4706688 (J Med Chem, 2021).

pIC50: −log10 of the molar value.

This test can be described thus: cells. Type of test: functional, tissue-based, UKE-1. Particulars: Homo sapiens, UKE1, 72 h.

Take `C[C@@H]1CCN(C(=O)CC#N)C[C@@H]1N(C)c1ncnc2[nH]ccc12` [TOFACITINIB]: the pIC50 is 6.04.
